These results are taken from patent publication US12195506B2, “Immunotherapy with A*01 restricted peptides and combination of peptides against cancers and related methods” (Immatics Biotechnologies GmbH, priority 2018, dated 2025).

For part of these data: Expression grades refer to the transcript from which the peptide derives; gene names, where given, were looked up from the sequence.

For data set [1], the system named is HLA molecules of primary tumors and normal tissue samples. In words: Identification and relative quantitation of HLA ligands by LC-MS (peptide presentation on tumor versus normal tissue). Particulars: cancer entities on which the peptide was found presented (HLA ligands, LC-MS); abbreviations as in title of Table 8. Also noted: species or system human.
Another data set relates to source genes (mRNA). In words: Expression profiling of genes encoding the peptides (RNAseq, tumor versus normal tissues). The note with it: source gene of the peptide; for Gene Expression in tumor samples: Highly over-expressed (++): value = tumor type in which the gene is highly over-expressed compared to a panel of normal tissues; for Gene Expression in tumor samples: over-expressed (+): value = tumor type in which the gene is over-expressed compared to a panel of normal tissues; for Gene Expression in tumor samples: very highly over-expressed (+++): value = tumor type in which the gene is very highly over-expressed compared to a panel of normal tissues. Also noted: species or system human.

In the case of “57: peptide found in CYP1A1 (gene looked up) (ASDPASSTSCY; listed as Homo sapiens) [compound 57]”, the “Peptide Presentation on cancer entities” value in data set [1] is recorded as “HCC”. The “Gene Expression in tumor samples: Highly over-expressed (++)” value in the data set with source genes (mRNA) was “NSCLCother”.
In the case of “63: peptide found in ROS1 (gene looked up) (TSEISQNALMY; listed as Homo sapiens) [compound 63]”, the “Peptide Presentation on cancer entities” value in data set [1] is given as “NSCLCadeno, NSCLCother, NSCLCsquam”. In addition, in the data set on source genes (mRNA), the “Gene Expression in tumor samples: Highly over-expressed (++)” value was “NSCLCadeno” and the “Gene Expression in tumor samples: over-expressed (+)” value (shortened to “Gene Expression … over-expressed (+)”) was “NSCLCother, NSCLCsquam”.
Turning to “64: peptide found in ROS1 (gene looked up) (TSEISQNALMYY; listed as Homo sapiens) [compound 64]”, the “Peptide Presentation on cancer entities” value in data set [1] was “NSCLCadeno”. Further, in the data set on source genes (mRNA), the “Gene Expression in tumor samples: Highly over-expressed (++)” value is given as “NSCLCadeno” and the “Gene Expression … over-expressed (+)” value is given as “NSCLCother, NSCLCsquam”.
Turning to “68: peptide found in FERMT1 (gene looked up) (QSLPEFGLTY; listed as Homo sapiens) [compound 68]”, in data set [1], the “Peptide Presentation on cancer entities” value is reported as “CCC, OSCAR”. Also, the “Gene Expression in tumor samples: Highly over-expressed (++)” value in the data set on source genes (mRNA) was “CRC”.
For “69: peptide found in FERMT1 (gene looked up) (QSLPEFGLTYY; listed as Homo sapiens) [compound 69]”, in that order: “OSCAR” and “CRC”.
For “73: peptide found in APOB (gene looked up) (STDSASYY; listed as Homo sapiens) [compound 73]”, in that order: “HCC” and “HCC”.
In the case of “75: peptide found in ABCB11 (gene looked up) (FTDYELKAY; listed as Homo sapiens) [compound 75]”, the “Peptide Presentation on cancer entities” value in data set [1] was “HCC”. Besides, the “Gene Expression in tumor samples: Highly over-expressed (++)” value in the data set on source genes (mRNA) is given as “HCC”.
Regarding “84: peptide found in ABCB11 (gene looked up) (ESEMIKFASYY; listed as Homo sapiens) [compound 84]”, in data set [1], the “Peptide Presentation on cancer entities” value is on record as “HCC”. Besides, the “Gene Expression … over-expressed (+)” value in the data set on source genes (mRNA) is “HCC”.
As for “91: peptide found in SLC6A3 (gene looked up) (CLVLVIVLLY; listed as Homo sapiens) [compound 91]”, in data set [1], the “Peptide Presentation on cancer entities” value is listed as “NSCLCadeno”. Besides, in the data set on source genes (mRNA), the “Gene Expression … over-expressed (+)” value is listed as “NSCLCadeno, NSCLCsquam” and the “Gene Expression in tumor samples: very highly over-expressed (+++)” value is “RCC”.
For the substance “95: peptide found in MMP12 (gene looked up) (SSDPKAVMF; listed as Homo sapiens) [compound 95]”, in data set [1], the “Peptide Presentation on cancer entities” value is recorded as “CRC”. Also, in the data set with source genes (mRNA), the “Gene Expression … over-expressed (+)” value is “HCC, RCC” and the “Gene Expression in tumor samples: very highly over-expressed (+++)” value was “OSCAR, SCLC, UBC”.
As for “97: peptide found in CYP4Z1 (gene looked up) (FPAPPAHWFY; listed as Homo sapiens) [compound 97]”, the “Peptide Presentation on cancer entities” value in data set [1] was “BRCA”. The “Gene Expression in tumor samples: very highly over-expressed (+++)” value in the data set on source genes (mRNA) is reported as “BRCA”.
Consider “100: peptide found in CYP4Z1 (gene looked up) (TTSSAISWILY; listed as Homo sapiens) [compound 100]”, for which the “Peptide Presentation on cancer entities” value in data set [1] is given as “BRCA”. The “Gene Expression in tumor samples: Highly over-expressed (++)” value with source genes (mRNA) is “BRCA”.
For “135: peptide found in F5 (gene looked up) (TFDKQIVLL; listed as Homo sapiens) [compound 135]”, in data set [1], the “Peptide Presentation on cancer entities” value is given as “NSCLCother”. In addition, in the data set with source genes (mRNA), the “Gene Expression in tumor samples: Highly over-expressed (++)” value was “HCC” and the “Gene Expression … over-expressed (+)” value was “CCC”.
As to “137: peptide found in NAT1 (gene looked up) (EAYLERIGY; listed as Homo sapiens) [compound 137]”, the “Peptide Presentation on cancer entities” value in data set [1] is “BRCA”. Besides, the “Gene Expression in tumor samples: Highly over-expressed (++)” value with source genes (mRNA) is “BRCA”.
As for “138: peptide found in PTPRZ1 (gene looked up) (IPVHDSVGVTY; listed as Homo sapiens) [compound 138]”, the “Peptide Presentation on cancer entities” value in data set [1] is “MEL”. Moreover, in the data set on source genes (mRNA), the “Gene Expression in tumor samples: Highly over-expressed (++)” value was “GBM”.
In the case of “139: peptide found in PTPRZ1 (gene looked up) (PVHDSVGVTY; listed as Homo sapiens) [compound 139]”, the “Peptide Presentation on cancer entities” value in data set [1] is “GC, SCLC, UEC”. For the same substance, in the data set with source genes (mRNA), the “Gene Expression in tumor samples: Highly over-expressed (++)” value is “GBM”.
“140: peptide found in PTPRZ1 (gene looked up) (SQHIFTVSY; listed as Homo sapiens) [compound 140]”: in data set [1], the “Peptide Presentation on cancer entities” value is “GBM, NSCLCsquam”. Moreover, the “Gene Expression in tumor samples: Highly over-expressed (++)” value with source genes (mRNA) is “GBM”.
For the substance “141: peptide found in F5 (gene looked up) (DAVAPGREY; listed as Homo sapiens) [compound 141]”, the “Peptide Presentation on cancer entities” value in data set [1] was “GBC”. In the data set with source genes (mRNA), the “Gene Expression in tumor samples: Highly over-expressed (++)” value was “HCC” and the “Gene Expression … over-expressed (+)” value is reported as “CCC”.
For “142: peptide found in PTPRZ1 (gene looked up) (IEKFAVLY; listed as Homo sapiens) [compound 142]”, the “Peptide Presentation on cancer entities” value in data set [1] was “HNSCC”. Moreover, in the data set with source genes (mRNA), the “Gene Expression in tumor samples: Highly over-expressed (++)” value is “GBM”.
Consider “143: peptide found in PGR (gene looked up) (HVSGQMLYF; listed as Homo sapiens) [compound 143]”, for which the “Peptide Presentation on cancer entities” value in data set [1] is “BRCA”. For the same substance, in the data set with source genes (mRNA), the “Gene Expression in tumor samples: Highly over-expressed (++)” value was “UEC” and the “Gene Expression … over-expressed (+)” value was “BRCA”.
As for “146: peptide found in MMP16 (gene looked up) (LCATVCGTEQY; listed as Homo sapiens) [compound 146]”, in data set [1], the “Peptide Presentation on cancer entities” value is “HNSCC”. For the same substance, in the data set on source genes (mRNA), the “Gene Expression in tumor samples: Highly over-expressed (++)” value was “GBM, MEL” and the “Gene Expression … over-expressed (+)” value is recorded as “BRCA”.
As to “157: peptide found in IGF1R (gene looked up) (GLIEVVTGY; listed as Homo sapiens) [compound 157]”, the “Peptide Presentation on cancer entities” value in data set [1] was “MEL, OC”. Further, in the data set on source genes (mRNA), the “Gene Expression in tumor samples: Highly over-expressed (++)” value is “BRCA”.
Take “164: peptide found in ADAMTS12 (gene looked up) (KLAGTVFQY; listed as Homo sapiens) [compound 164]”: the “Peptide Presentation on cancer entities” value in data set [1] is “NSCLCsquam”. In addition, in the data set on source genes (mRNA), the “Gene Expression in tumor samples: Highly over-expressed (++)” value was “CCC, GBC”.
Turning to “167: peptide found in F5 (gene looked up) (RAVQPGETY; listed as Homo sapiens) [compound 167]”, in data set [1], the “Peptide Presentation on cancer entities” value was “NSCLCother, NSCLCsquam”. Also, in the data set on source genes (mRNA), the “Gene Expression in tumor samples: Highly over-expressed (++)” value is listed as “HCC” and the “Gene Expression … over-expressed (+)” value is reported as “CCC”.
For “168: peptide found in F5 (gene looked up) (VQPGETYTY; listed as Homo sapiens) [compound 168]”, in that order: “GBC”, “HCC” and “CCC”.
Take “170: peptide found in EGFR (gene looked up) (VQIAKGMNY; listed as Homo sapiens) [compound 170]”: in data set [1], the “Peptide Presentation on cancer entities” value is reported as “NSCLCsquam”. For the same substance, in the data set with source genes (mRNA), the “Gene Expression in tumor samples: Highly over-expressed (++)” value is listed as “GBM” and the “Gene Expression … over-expressed (+)” value is “HNSCC”.
In the case of “171: peptide found in EGFR (gene looked up) (ITDFGLAKL; listed as Homo sapiens) [compound 171]”, the “Peptide Presentation on cancer entities” value in data set [1] is reported as “NSCLCadeno”. In the data set on source genes (mRNA), the “Gene Expression in tumor samples: Highly over-expressed (++)” value is listed as “GBM” and the “Gene Expression … over-expressed (+)” value is given as “HNSCC”.
With “178: peptide found in ROS1 (gene looked up) (TQRTSFQFY; listed as Homo sapiens) [compound 178]”, in data set [1], the “Peptide Presentation on cancer entities” value is “NSCLCadeno, NSCLCsquam, OC”. For the same substance, in the data set with source genes (mRNA), the “Gene Expression in tumor samples: Highly over-expressed (++)” value is “NSCLCadeno” and the “Gene Expression … over-expressed (+)” value is recorded as “NSCLCother, NSCLCsquam”.
Turning to “179: peptide found in FERMT1 (gene looked up) (SSTDFTFASW; listed as Homo sapiens) [compound 179]”, in data set [1], the “Peptide Presentation on cancer entities” value is reported as “HNSCC, OC, OSCAR”. Further, the “Gene Expression in tumor samples: Highly over-expressed (++)” value in the data set on source genes (mRNA) is “CRC”.
For “181: peptide found in HTR7 (gene looked up) (SVTDLIGGKW; listed as Homo sapiens) [compound 181]”, the “Peptide Presentation on cancer entities” value in data set [1] is reported as “OSCAR”. Also, in the data set with source genes (mRNA), the “Gene Expression in tumor samples: Highly over-expressed (++)” value is “HNSCC, UBC” and the “Gene Expression … over-expressed (+)” value was “AML, NSCLCsquam, OSCAR”.
On to “182: peptide found in ADAMTS12 (gene looked up) (TQPELSSRY; listed as Homo sapiens) [compound 182]”, for which, in data set [1], the “Peptide Presentation on cancer entities” value was “NSCLCadeno”. Further, the “Gene Expression in tumor samples: Highly over-expressed (++)” value with source genes (mRNA) is on record as “CCC, GBC”.
On to “184: peptide found in EGFR (gene looked up) (KTIQEVAGY; listed as Homo sapiens) [compound 184]”, for which the “Peptide Presentation on cancer entities” value in data set [1] is “GBM, HNSCC”. Further, the “Gene Expression in tumor samples: Highly over-expressed (++)” value in the data set with source genes (mRNA) is reported as “GBM”.
“186: peptide found in CTLA4 (gene looked up) (AVSSGLFFY; listed as Homo sapiens) [compound 186]”: the “Peptide Presentation on cancer entities” value in data set [1] is recorded as “BRCA”. Further, in the data set on source genes (mRNA), the “Gene Expression in tumor samples: Highly over-expressed (++)” value is “CLL” and the “Gene Expression … over-expressed (+)” value is listed as “NHL”.
